No constants are given. Whether binding was seen depends on the method and setting. For some of these results: In cells and extracts the contact can be indirect. Some entries that bind do so weakly or less than the wild type. For some of these results: Sequences can lack the tags named with a protein.
Key:
[1] = biological target: T1, PEAK1IDR1 (PEAK1 residues 1082-1746) (human) (UniProt Q9H792); assay: SEC; Superdex 200 Increase 10/300, PEAK1IDR1 with CrkIIFL dimer at 1:1.3 molar ratio, pre-equilibrated 25 min at room temperature; SDS-PAGE of eluted fractions; both purified
T1 sequence: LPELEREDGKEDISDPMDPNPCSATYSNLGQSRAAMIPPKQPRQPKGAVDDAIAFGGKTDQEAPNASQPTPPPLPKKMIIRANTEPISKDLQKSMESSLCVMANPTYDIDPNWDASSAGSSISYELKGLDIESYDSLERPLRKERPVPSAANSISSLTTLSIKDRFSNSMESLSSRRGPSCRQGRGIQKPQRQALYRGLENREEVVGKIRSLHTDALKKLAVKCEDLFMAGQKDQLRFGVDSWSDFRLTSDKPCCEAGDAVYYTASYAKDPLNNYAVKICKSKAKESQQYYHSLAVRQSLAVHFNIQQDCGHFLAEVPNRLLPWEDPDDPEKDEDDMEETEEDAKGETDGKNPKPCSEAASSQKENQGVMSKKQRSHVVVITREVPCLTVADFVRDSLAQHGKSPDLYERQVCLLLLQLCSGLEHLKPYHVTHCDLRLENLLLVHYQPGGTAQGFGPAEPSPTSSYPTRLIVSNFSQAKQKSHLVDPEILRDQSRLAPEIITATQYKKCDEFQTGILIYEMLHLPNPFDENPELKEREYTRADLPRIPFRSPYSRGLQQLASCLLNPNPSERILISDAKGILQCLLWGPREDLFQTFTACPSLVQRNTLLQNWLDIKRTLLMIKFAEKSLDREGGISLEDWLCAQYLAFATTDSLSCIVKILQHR

[2] = biological target: T2, PEAK2IDR1 (PEAK2 residues 802-1406) (human) (UniProt Q86YV5); assay: SEC-MALS; Superdex 200 Increase 10/300 GL, 20 mM HEPES pH 7.5, 150 mM NaCl, 1 mM TCEP, 0.5 ml/min; both purified
T2 sequence (chain, phosphorylated at the tandem site 14-3-3 motif (RAASSP) by LC MS/MS): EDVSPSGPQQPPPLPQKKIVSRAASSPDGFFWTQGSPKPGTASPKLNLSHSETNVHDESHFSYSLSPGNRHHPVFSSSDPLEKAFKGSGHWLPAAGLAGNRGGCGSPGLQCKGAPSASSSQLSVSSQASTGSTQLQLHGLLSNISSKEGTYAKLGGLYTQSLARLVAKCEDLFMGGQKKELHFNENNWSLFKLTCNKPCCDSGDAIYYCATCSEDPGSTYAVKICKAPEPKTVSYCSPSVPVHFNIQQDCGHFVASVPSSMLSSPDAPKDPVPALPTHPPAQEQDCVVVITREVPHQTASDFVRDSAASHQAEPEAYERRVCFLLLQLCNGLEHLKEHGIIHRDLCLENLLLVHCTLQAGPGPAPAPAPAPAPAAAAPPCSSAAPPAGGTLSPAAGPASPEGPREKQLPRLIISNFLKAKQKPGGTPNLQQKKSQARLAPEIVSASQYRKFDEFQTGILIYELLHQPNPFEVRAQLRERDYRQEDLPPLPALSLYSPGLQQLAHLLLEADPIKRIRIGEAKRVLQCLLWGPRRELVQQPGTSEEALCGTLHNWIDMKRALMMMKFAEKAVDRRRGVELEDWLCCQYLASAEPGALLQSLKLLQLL

[3] = biological target: T3, HA-tagged PEAK3FL-S69A (human) (UniProt Q6ZS72); assay: co-IP; anti-HA agarose IP from lysates of HEK293 cells expressing HA-PEAK3FL WT or mutants (alone or with Flag-PEAK3FL WT), Western blot
T3 sequence: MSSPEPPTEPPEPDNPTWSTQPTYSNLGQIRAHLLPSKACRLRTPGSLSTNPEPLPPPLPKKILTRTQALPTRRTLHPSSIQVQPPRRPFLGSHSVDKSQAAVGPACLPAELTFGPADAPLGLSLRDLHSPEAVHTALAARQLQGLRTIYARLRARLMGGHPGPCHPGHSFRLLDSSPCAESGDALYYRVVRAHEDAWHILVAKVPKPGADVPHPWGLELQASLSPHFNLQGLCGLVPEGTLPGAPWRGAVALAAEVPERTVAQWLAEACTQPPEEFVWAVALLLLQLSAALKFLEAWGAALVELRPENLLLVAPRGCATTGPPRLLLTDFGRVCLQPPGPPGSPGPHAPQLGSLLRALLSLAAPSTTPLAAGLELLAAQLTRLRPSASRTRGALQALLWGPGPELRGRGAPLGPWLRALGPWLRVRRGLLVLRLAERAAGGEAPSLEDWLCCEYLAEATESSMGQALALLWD

[4] = biological target: T3, HA-tagged PEAK3FL-S69A (human); assay: co-IP; HEK293 cells transfected with HA-PEAK3^FL forms (alone or with Flag-PEAK3^FL WT), lysates on anti-HA agarose at 4 °C overnight, Western blot

binding [1] | binding [2] | binding [3] | binding [4] | Substance
binds | binds |  |  | full length CrkII, dimer (CrkIIFL dimer) (from UniProt P46108-1 1-304)
 |  | binds | binds | endogenous CrkII (HEK293) (from UniProt P46108-1 1-304)
